According to paper doi:10.1101/428250:
No constants are given. Whether binding was seen depends on the method and setting. Binding seen in cells or lysates may run through a third protein. Tags and fused reporters may be left off the sequences shown.

Sequences of proteins named here, by UniProt entry; tags and fusion partners are left off.
UniProt Q9UKV8: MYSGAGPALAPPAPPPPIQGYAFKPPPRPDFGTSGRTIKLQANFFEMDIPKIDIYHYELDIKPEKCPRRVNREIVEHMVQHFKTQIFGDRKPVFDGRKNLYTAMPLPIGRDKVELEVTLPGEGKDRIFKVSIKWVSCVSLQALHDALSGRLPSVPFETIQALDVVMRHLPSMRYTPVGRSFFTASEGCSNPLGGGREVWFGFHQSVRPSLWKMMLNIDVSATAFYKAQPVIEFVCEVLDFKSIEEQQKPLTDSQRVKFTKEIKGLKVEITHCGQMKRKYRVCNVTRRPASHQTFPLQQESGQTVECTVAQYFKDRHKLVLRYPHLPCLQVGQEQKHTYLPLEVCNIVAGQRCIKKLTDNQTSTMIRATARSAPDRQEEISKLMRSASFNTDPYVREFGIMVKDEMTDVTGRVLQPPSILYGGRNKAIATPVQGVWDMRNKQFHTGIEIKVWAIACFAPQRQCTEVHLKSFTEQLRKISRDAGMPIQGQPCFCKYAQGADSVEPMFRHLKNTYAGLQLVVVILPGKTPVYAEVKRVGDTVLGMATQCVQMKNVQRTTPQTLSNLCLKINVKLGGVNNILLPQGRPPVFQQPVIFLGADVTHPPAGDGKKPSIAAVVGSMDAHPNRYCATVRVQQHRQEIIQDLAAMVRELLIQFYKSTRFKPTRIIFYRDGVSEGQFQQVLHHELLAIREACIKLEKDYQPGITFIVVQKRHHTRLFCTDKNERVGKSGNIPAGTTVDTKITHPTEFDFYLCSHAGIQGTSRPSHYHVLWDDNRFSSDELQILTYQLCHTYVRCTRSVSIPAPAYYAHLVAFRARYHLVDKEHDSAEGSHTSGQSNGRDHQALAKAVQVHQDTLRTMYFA

Target: T1, eGFP-tagged human NRDE2 (human) (UniProt Q9H7Z3)
T1 sequence: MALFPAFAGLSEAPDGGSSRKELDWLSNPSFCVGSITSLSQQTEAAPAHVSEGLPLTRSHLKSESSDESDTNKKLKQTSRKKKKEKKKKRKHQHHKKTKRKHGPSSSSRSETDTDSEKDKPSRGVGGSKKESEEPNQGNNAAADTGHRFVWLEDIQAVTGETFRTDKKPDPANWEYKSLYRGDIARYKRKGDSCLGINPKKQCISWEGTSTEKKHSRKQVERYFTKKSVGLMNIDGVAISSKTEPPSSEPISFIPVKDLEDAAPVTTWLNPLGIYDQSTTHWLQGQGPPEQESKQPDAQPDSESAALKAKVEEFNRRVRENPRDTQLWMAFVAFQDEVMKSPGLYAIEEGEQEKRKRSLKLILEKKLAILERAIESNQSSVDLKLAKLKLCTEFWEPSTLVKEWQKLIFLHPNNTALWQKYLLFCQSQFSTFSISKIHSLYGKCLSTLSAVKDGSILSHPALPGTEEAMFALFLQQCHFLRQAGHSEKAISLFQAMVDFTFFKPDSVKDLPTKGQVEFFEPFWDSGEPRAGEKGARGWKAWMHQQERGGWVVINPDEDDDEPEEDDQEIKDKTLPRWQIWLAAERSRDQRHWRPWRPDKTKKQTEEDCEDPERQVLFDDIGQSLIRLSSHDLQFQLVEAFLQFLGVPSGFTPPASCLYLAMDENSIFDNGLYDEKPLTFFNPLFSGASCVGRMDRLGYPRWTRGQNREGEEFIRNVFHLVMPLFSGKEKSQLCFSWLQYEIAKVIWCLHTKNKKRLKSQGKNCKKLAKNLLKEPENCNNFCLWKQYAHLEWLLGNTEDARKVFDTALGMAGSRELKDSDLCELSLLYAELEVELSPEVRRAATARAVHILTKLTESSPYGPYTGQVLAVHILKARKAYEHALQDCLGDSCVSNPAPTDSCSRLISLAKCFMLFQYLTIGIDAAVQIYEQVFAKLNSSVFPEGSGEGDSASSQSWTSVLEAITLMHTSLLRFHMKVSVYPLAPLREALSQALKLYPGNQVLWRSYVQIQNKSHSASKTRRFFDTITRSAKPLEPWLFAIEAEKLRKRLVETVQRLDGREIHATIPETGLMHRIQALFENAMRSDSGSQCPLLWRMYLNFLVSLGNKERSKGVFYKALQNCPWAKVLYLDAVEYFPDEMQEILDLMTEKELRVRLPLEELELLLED
Test: co-IP

binding | Substance
no binding | human Argonaute Ago2 (from UniProt Q9UKV8 1-859)
no binding | human Argonaute Ago3 (from UniProt Q9H9G7 1-860)
no binding | human Argonaute Ago1 (from UniProt Q9UL18 1-857)
